This is an account of results in PubChem BioAssay.

The nature of assay [1]: Drosophila SCA1 whole organism dose response for polyglutamine toxicity reduction (AID 1595). Particulars: Drosophila SCA1 polyglutamine model, at 1 µM, stronger effect = higher value.
Assay [2] is described as follows: PubChem AID 1597. The note with it: Drosophila SCA1 polyglutamine model, at 1 µM, stronger effect = higher value.

Several values for one entry are separate records, joined by “and”; a condition that tells them apart may be missing. Equal values may be shown once. This is one part of the list. Potency and affinity values are given separately. Entries without a call are filed as inconclusive in the source.

Turning to `Fc1ccc(C(c2ccccc2)(c2ccccc2F)n2ccnc2)cc1` (stereo not given), the suppression of toxicity is 0 in assay [1]; 0 and 2.86 in assay [2].

Regarding `O=C1NS(=O)(=O)c2ccccc21`, the suppression of toxicity in assay [1] is 7.14; in assay [2], 5.

Take `CCOC(=O)c1ccc(N)cc1`: the suppression of toxicity in assay [1] is 14.3; in assay [2], 15.7.

In the case of `Nc1ccc(S(=O)(=O)c2ccc(N)cc2)cc1`, the suppression of toxicity in assay [1] was determined as 14.3; in assay [2] it was 1.43.

For the compound `Cc1ccc(C)c(OCCCC(C)(C)C(=O)O)c1`, the figures for the suppression of toxicity in assay [1] and in assay [2] were 7.14 and 8.57, respectively.

In the case of `COc1cnc(NS(=O)(=O)c2ccc(N)cc2)nc1`, the suppression of toxicity in assay [1] and in assay [2] was 1.43 in each case.

Regarding `C[C@H](CCC(=O)O)[C@H]1CCC2C3C(CC[C@@]21C)[C@@]1(C)CC[C@@H](O)C[C@H]1C[C@@H]3O` (stereo not given in full), the suppression of toxicity amounted to 0 in assay [1] and 0.715 in assay [2].

Turning to `CC1(C)S[C@@H]2[C@H](NC(=O)[C@@H](N)c3ccc(O)cc3)C(=O)N2[C@H]1C(=O)O`, the values for the suppression of toxicity in assay [1] and in assay [2] were 4.29 and 7.14, respectively.

As to `CCC(=O)O[C@H]1[C@H](O[C@@H]2[C@@H](C)[C@H](O[C@H]3C[C@@](C)(OC)[C@@H](O)[C@H](C)O3)[C@@H](C)C(=O)O[C@H](CC)[C@@](C)(O)[C@H](O)[C@@H](C)C(=O)[C@H](C)C[C@@]2(C)O)O[C@H](C)C[C@@H]1N(C)C`, the suppression of toxicity came out at 1.43 in assay [1] and 2.15 in assay [2].

Turning to `CNC(C)[C@@H]1CC[C@@H](N)[C@@H](OC2[C@@H](N)C[C@@H](N)[C@H](OC3OC[C@](C)(O)[C@H](NC)[C@H]3O)[C@H]2O)O1` (stereo not given in full), the suppression of toxicity in assay [1] stood at 4.29; in assay [2] it was 5.71.

Regarding `CCCCNC(=O)NS(=O)(=O)c1ccc(C)cc1`, the suppression of toxicity was determined as 2.85 in assay [1] and 4.29 in assay [2].

Take `NC(=O)c1cnccn1`: the suppression of toxicity in assay [1] worked out at 21.4; in assay [2], 20.

On to `C=CC[C@@H]1/C=C(\C)C[C@H](C)C[C@H](OC)[C@H]2O[C@@](O)(C(=O)C(=O)N3CCCC[C@H]3C(=O)O[C@H](/C(C)=C/[C@@H]3CC[C@@H](O)[C@H](OC)C3)[C@H](C)[C@@H](O)CC1=O)[C@H](C)C[C@@H]2OC`, for which the suppression of toxicity in assay [1] and in assay [2] was 0 throughout.

For the compound `CN[C@@H]1C(O)[C@@H](O[C@@H]2[C@@H](O)[C@H](O[C@H]3OC(CN)=CC[C@H]3N)[C@@H](N)C[C@H]2N)OC[C@]1(C)O` (stereo not given in full), the suppression of toxicity is 1.43 in assay [1] and 8.57 in assay [2].

Consider `CC12CC[C@@H]3c4ccc(O)cc4CCC3[C@@H]1CCC2=O` (stereo not given in full), for which the suppression of toxicity amounted to 11.4 in assay [1] and 2.86 in assay [2].

`CC(C)NCC(O)COc1ccc(CC(N)=O)cc1` (stereo not given): the suppression of toxicity in assay [1] and in assay [2] was 0 throughout.

On to `NC[C@@H]1O[C@H](OC2[C@@H](O)[C@H](O[C@@H]3[C@H](N)[C@@H](O)C[C@H](N)[C@H]3O[C@H]3O[C@H](CO)[C@@H](O)[C@H](O)[C@H]3N)O[C@@H]2CO)[C@H](N)[C@@H](O)[C@@H]1O` (stereo not given in full), for which the suppression of toxicity in assay [1] worked out at 1.43; in assay [2] it was 2.15.

Consider `C[C@@H]1O[C@@H](OC[C@H]2O[C@@H](Oc3c(-c4ccc(O)c(O)c4)oc4cc(O)cc(O)c4c3=O)[C@H](O)[C@@H](O)[C@@H]2O)[C@H](O)[C@H](O)[C@H]1O`, for which the figures for the suppression of toxicity in assay [1] and in assay [2] were 12.9 and 16.4, respectively.

Turning to `CN(C)/N=N/c1nc[nH]c1C(N)=O`, the suppression of toxicity in assay [1] came to 0; in assay [2], 2.86.

For the compound `CCC(=O)O[C@@H](O[P@](=O)(CCCCc1ccccc1)CC(=O)N1C[C@H](C2CCCCC2)C[C@H]1C(=O)O)C(C)C`, the suppression of toxicity in assay [1] and in assay [2] was 1.43 in each case.

As for `N=C(N)c1ccc(OCCCCCOc2ccc(C(=N)N)cc2)cc1`, the suppression of toxicity in assay [1] and in assay [2] was 0 throughout.

For `CN(C)C(=O)Oc1ccc[n+](C)c1`, the suppression of toxicity in assay [1] is 1.43; in assay [2], 5.71.

As for `O=C(O)CCC(=O)Nc1ccc(S(=O)(=O)Nc2nccs2)cc1`, the suppression of toxicity in assay [1] and in assay [2] was 0 throughout.

As to `CCCCOc1ccc(C(=O)CCN2CCCCC2)cc1`, the figures for the suppression of toxicity in assay [1] and in assay [2] were 0 and 3.57, respectively.

Turning to `CC1(C)S[C@@H]2[C@H](NC(=O)[C@H](N)c3ccccc3)C(=O)N2[C@H]1C(=O)O`, the suppression of toxicity in assay [1] was 0; in assay [2], 2.15.
